Laboratory results from publication PMC11585782, “The Plastidial Protein Acetyltransferase GNAT1 Forms a Complex With GNAT2, yet Their Interaction Is Dispensable for State Transitions” (Molecular & Cellular Proteomics : MCP, 2024).
No constants are given. Whether binding was seen depends on the method and setting. Binding seen in cells or lysates may run through a third protein. A yes stands for co-enrichment or nearness to the bait. Other partners may have been found. Tags and fused reporters may be left off the sequences shown.

T1: GNAT1-GFP (Arabidopsis thaliana) (UniProt Q9C666)
T1 sequence: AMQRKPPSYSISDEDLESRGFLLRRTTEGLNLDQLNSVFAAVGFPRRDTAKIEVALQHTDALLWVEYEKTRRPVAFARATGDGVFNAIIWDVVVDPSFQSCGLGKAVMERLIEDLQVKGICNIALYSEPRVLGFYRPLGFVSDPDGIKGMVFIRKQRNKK

B1: HCF136 (protein, UniProt O82660 79-403)
chain: DEQLSEWERVFLPIDPGVVLLDIAFVPDEPSRGFLLGTRQTLLETKDGGSTWNPRSIPSAEEEDFNYRFNSISFKGKEGWIIGKPAILLYTADAGENWDRIPLSSQLPGDMVFIKATEDKSAEMVTDEGAIYVTSNRGYNWKAAIQETVSATLNRTVSSGISGASYYTGTFSAVNRSPDGRYVAVSSRGNFFLTWEPGQPYWQPHNRAVARRIQNMGWRADGGLWLLVRGGGLYLSKGTGITEEFEEVPVQSRGFGILDVGYRSEEEAWAAGGSGILLRTRNGGKSWNRDKAADNIAANLYAVKFVDDKKGFVLGNDGVLLRYVG
B2: 6-Phosphogluconate Dehydrogenase PGD1 (enzyme, UniProt Q9SH69 1-487)
chain: MESAALSRIGLAGLAVMGQNLALNIAEKGFPISVYNRTTSKVDETLDRAAVEGNLPVSGQYSPRDFVLSIQRPRSLIILVKAGAPVDQTIDAFSEYMEPGDCIIDGGNEWYQNTERRISEAEQKGLLYLGMGVSGGEEGARNGPSLMPGGSFQAYDNIKDILEKVAAQVEDGPCVTYIGEGGSGNFVKMVHNGIEYGDMQLISEAYDVLKNVGGLSNEELAEIFTEWNSGELESFLVEITSDIFRVKDEFGDGELVDKILDKTGMKGTGKWTVQQAAELSVAAPTIAASLDCRYLSGLKDERENAAKVLREAGLKEEIGSASSGIDKKRLVDDVRQALYASKICSYAQGMNLLRAKSLEKSWNLNFGELARIWKGGCIIRAVFLDRIKKAYQRNPDLASLVVDPEFAKEMVQRQAAWRRVVGLAVSAGISTPGMCASLAYFDTYRRARLPANLVQAQRDLFGAHTYERTDRPGAYHTEWTKLARKNH
B3: 6-Phosphogluconate Dehydrogenase PGD3 (enzyme, UniProt Q9FFR3 1-487)
chain: MESVALSRIGLAGLAVMGQNLALNIADKGFPISVYNRTTSKVDETLDRASNEGKLPVAGQYSPRDFVLSIQRPRSVIILVKAGAPVDQTISALSEYMEPGDCIIDGGNEWYQNTERRIVEAEKKGLLYLGMGVSGGEEGARNGPSLMPGGSFTAYNNVKDILEKVAAQVEDGPCVTYIGEGGSGNFVKMVHNGIEYGDMQLISEAYDVLKNVGGLSNDELAEIFTEWNRGELESFLVEITSDIFRVKDDYGDGELVDKILDKTGMKGTGKWTVQQAAELSVAAPTIAASLDCRYLSGLKDERENAAKVLEEAGLKEDIGSASRGVDKKRLIDDVRQALYASKICSYAQGMNLLRAKSLEKGWDLNLGEMARIWKGGCIIRAVFLDRIKKAYQRNPNLASLVVDPDFAKEMVQRQAAWRRVVGLAISAGISTPGMCASLAYFDTYRRARLPANLVQAQRDLFGAHTYERTDRPGAYHTEWTKLARKSQ
B4: ATP sulfurylase APS1 (enzyme, UniProt Q9LIK9 49-463)
chain: GLIAPDGGKLVELIVEEPKRREKKHEAADLPRVELTAIDLQWMHVLSEGWASPLGGFMRESEFLQTLHFNSLRLDDGSVVNMSVPIVLAIDDEQKARIGESTRVALFNSDGNPVAILSDIEIYKHPKEERIARTWGTTAPGLPYVDEAITNAGNWLIGGDLEVLEPVKYNDGLDRFRLSPAELRKELEKRNADAVFAFQLRNPVHNGHALLMTDTRRRLLEMGYKNPILLLHPLGGFTKADDVPLDWRMKQHEKVLEDGVLDPETTVVSIFPSPMHYAGPTEVQWHAKARINAGANFYIVGRDPAGMGHPVEKRDLYDADHGKKVLSMAPGLERLNILPFRVAAYDKTQGKMAFFDPSRPQDFLFISGTKMRTLAKNNENPPDGFMCPGGWKVLVDYYESLTPAGNGRLPEVVPV
B5: ATP sulfurylase APS2 (enzyme, UniProt Q43870 57-476)
chain: KMTVKSSLIDPDGGELVELIVPETEIGVKKAESETMPKVKLNQIDLEWVHVISEGWASPLKGFMREDEYLQSLHFNSLRLKNGTFVNMSLPIVLAIDDDTKEQIGSSENVALVCPQGDIIGSLRSVEIYKHNKEERIARTWGTTSPGLPYVEEYITPSGNWLIGGDLEVFEPIKYNDGLDHYRLSPKQLREEFDNRQADAVFAFQLRNPVHNGHALLMNDTRKRLLEMGYKNPVLLLHPLGGFTKADDVPLDVRMEQHSKVLEDGVLDPKTTIVSIFPSPMHYAGPTEVQWHAKARINAGANFYIVGRDPAGMGHPTEKRDLYDPDHGKRVLSMAPGLEKLNILPFRVAAYDTIEKKMAFFDPSRAKEFLFISGTKMRTYARTGENPPDGFMCPSGWNVLVKYYESLQESEAKQQAVVSA
B6: ATP sulfurylase APS4 (enzyme, UniProt Q9S7D8 52-469)
chain: GLIEPDGGKLMNLVVEESRRRVMKHEAETVPARIKLNRVDLEWVHVLSEGWASPLKGFMRQSEFLQTLHFNSFRLEDGSVVNMSVPIVLAIDDDQKFRIGDSNQVTLVDSVGNPIAILNDIEIYKHPKEERIARTWGTTARGLPYAEEAITKAGNWLIGGDLQVLEPIKYNDGLDRFRLSPSQLREEFIRRGADAVFAFQLRNPVHNGHALLMTDTRRRLLEMGYKNPVLLLNPLGGFTKADDVPLSWRMRQHEKVLEDGVLDPETTVVSIFPSPMLYAGPTEVQWHAKARINAGANFYIVGRDPAGMGHPTEKRDLYDADHGKKVLSMAPGLERLNILPFKVAAYDKTQGKMAFFDPSRSQDFLFISGTKMRGLAKKKENPPDGFMCPSGWKVLVDYYDSLSAETGNGRVSEAVASA
B7: CRR41 (protein, UniProt Q9C685 39-211)
chain: CSSNPESKDQFINLTPAPESINTTSAEKFPIEKRRRSEIIRDRTQRGIEKPEPPNFEIGWKRTKEINLEKPKGYVIMDFLEKFEALMAREFGSKELLAKAGEIVAERAREEAEVLRDEGKVEERMVTELFRVLKLMEMDLAMVKASVKDETLSQRIEQARARCRQAILVANSF
B8: LHCB4.3 (protein, UniProt Q9S7W1 30-276)
chain: RFGFSFGKKKPAPPPKKSRQVQDDGDRLVWFPGANPPEWLDGSMIGDRGFDPFGLGKPAEYLQYDFDGLDQNLAKNVAGDIIGIIQESSEIKPTPFQPYTEVFGIQRFRECELIHGRWAMLGTLGAIAVEALTGIAWQDAGKVELVEGSSYLGQPLPFSLTTLIWIEVLVVGYIEFQRNSELDPEKRIYPGGYFDPLGLAADPEKLDTLKLAEIKHSRLAMVAFLIFALQAAFTGKGPVSFLATFNN
B9: RNA Polymerase subunit Alpha (protein, UniProt P56762 1-329)
chain: MVREKVKVSTRTLQWKCVESKRDSKRLYYGRFILSPLMKGQADTIGIAMRRALLGEIEGTCITRAKSENIPHDYSNIAGIQESVHEILMNLNEIVLRSNLYGTRNALICVQGPGYITARDIILPPAVEIIDNTQHIATLTEPIDLCIELKIERNRGYSLKMSNNFEDRSYPIDAVFMPVENANHSIHSYGNGNEKQEILFLEIWTNGSLTPKEALHQASRNLINLFIPFLHVEEETFYLENNQHQVTLPFFPFHNRLVNLRKKKKTKELAFQYIFIDQLELPPRIYNCLKKSNIHTLLDLLNNSQEDLIKIEHFHVEDVKKILDILEKK
B10: RPL16 (protein, UniProt P56793 1-135)
chain: MLSPKRTRFRKQHRGRLKGISSRGNRICFGRYALQTLEPAWITSRQIEAGRRAMTRNVRRGGKIWVRIFPDKPVTVRPAETRMGSGKGSPEYWVAVVKPGKILYEMGGVPENIARKAISIAASKMPIKTQFIISE
B11: SVR3 (protein, UniProt F4K410 59-675)
chain: SASPSTAEPASEVKKKQLDRRDNVRNIAIVAHVDHGKTTLVDSMLRQAKVFRDNQVMQERIMDSNDLERERGITILSKNTSITYKNTKVNIIDTPGHSDFGGEVERVLNMVDGVLLVVDSVEGPMPQTRFVLKKALEFGHAVVVVVNKIDRPSARPEFVVNSTFELFIELNATDEQCDFQAIYASGIKGKAGLSPDDLAEDLGPLFEAIIRCVPGPNIEKDGALQMLATNIEYDEHKGRIAIGRLHAGVLRKGMDVRVCTSEDSCRFARVSELFVYEKFYRVPTDSVEAGDICAVCGIDNIQIGETIADKVHGKPLPTIKVEEPTVKMSFSVNTSPFSGREGKYVTSRNLRDRLNRELERNLAMKVEDGETADTFIVSGRGTLHITILIENMRREGYEFMVGPPKVINKRVNDKLLEPYEIATVEVPEAHMGPVVELLGKRRGQMFDMQGVGSEGTTFLRYKIPTRGLLGLRNAILTASRGTAILNTVFDSYGPWAGDISTRDLGSLVAFEDGTSTSYALASAQERGQMFVGSGVDVYKGQIVGIHQRPGDLGLNICKKKAATNIRSNKDVTVILDTPLTYSLDDCIEYIEEDELVEVTPSSIRMCKNQKMAKKGRQ
B12: Seedling Plastid Development 1 (protein, UniProt F4J3R7 79-684)
chain: DSSISSRKSPTTAPPTVELDAFLEILPPATRKELVKHEAIEELIEVVMDLGRKPLARFPSGDWVISEQPVTHQDLELAVSKVGDFSDDNRSGIDRSLHRISAIRNRKLQVIGLTCRVGRVVSGSAEIIRDLIEGGGSILVIGSPGVGKTTLIREIARMLADEHRKRVVIVDTSNEIGGDGDVPHSGIGRARRMQVPNVNLQHDVMIEAVENHMPETIIIDEIGTELEALAASTIAQRGVQLVATAHGMTIDNIIKNPSLQILIGGIESVTLGDEEARKRKVQKTILERKGPPTFTCAVEMISRTECRVHQRLDVTVDAILAGKSAPFEIRQIRGEDDVPHKLVTPIPLENLEEEPAPLLNRDFVSELLSDDEDEDFLLIRSNKARSNTYTSPRSSPVHVYTYNVLEADLLQVAEVMGLDDEIEVTDDVGEADVILASSSELKQNSSIRRVAKLHKLPIFVIKSTTMAQMVKAVRMILGRESFGSAPKAIEKSSVDDIEIKDDAPESKPSLEELDALEEVRLAIEYIVIPGGEPVELLPRRSDIIVRQLELVESYQLAVENLGTHLNPRLQILPRRSTKKTLTSSSPQKSADGSMGTTGTRLPFLKD
B13: Accumulation and Replication of Chloroplasts 11 (protein, UniProt Q9MBA2 63-326)
chain: ITSGKGGVGKTTTTANVGLSLARYGFSVVAIDADLGLRNLDLLLGLENRVNYTCVEVINGDCRLDQALVRDKRWSNFELLCISKPRSKLPMGFGGKALEWLVDALKTRPEGSPDFIIIDCPAGIDAGFITAITPANEAVLVTTPDITALRDADRVTGLLECDGIRDIKMIVNRVRTDMIKGEDMMSVLDVQEMLGLSLLGVIPEDSEVIRSTNRGFPLVLNKPPTLAGLAFEQAAWRLVEQDSMKAVMVEEEPKKRGFFSFFGG
B14: FTSZ1-1 (protein, UniProt Q42545 67-433)
chain: SFSPMESARIKVIGVGGGGNNAVNRMISSGLQSVDFYAINTDSQALLQSSAENPLQIGELLTRGLGTGGNPLLGEQAAEESKDAIANALKGSDLVFITAGMGGGTGSGAAPVVAQISKDAGYLTVGVVTYPFSFEGRKRSLQALEAIEKLQKNVDTLIVIPNDRLLDIADEQTPLQDAFLLADDVLRQGVQGISDIITIPGLVNVDFADVKAVMKDSGTAMLGVGVSSSKNRAEEAAEQATLAPLIGSSIQSATGVVYNITGGKDITLQEVNRVSQVVTSLADPSANIIFGAVVDDRYTGEIHVTIIATGFSQSFQKTLLTDPRAAKLLDKMGSSGQQENKGMSLPHQKQSPSTISTKSSSPRRLFF

target: T1, GNAT1-GFP (Arabidopsis thaliana); test: affinity purification with mass spectrometry; GFP-Trap A beads with 2 mg leaf protein of GNAT1-, GNAT2- or GNAT3-GFP overexpressing Arabidopsis lines, 2 h at 4 °C; extraction buffer 50 mM HEPES-KOH pH 7.5, 150 mM NaCl, 10% glycerol, 2 mM EDTA, 5 mM DTT, 0.5% Triton X-100; label-free quantification against a chloroplast-targeted GFP control line; four biological replicates

binding, binds:
B1
B2
B3
B4
B5
B6
B7
B8
B9
B10
B11
B12
B13
B14
